{
  "source": "patent US20230073301A1",
  "about": "“TISSUE DOSING FOR INTRALUMINAL LOCAL DRUG DELIVERY” (ISOLA THERAPEUTICS, INC., priority 2020, published 2023)",
  "assay": "GMX001 plasma PTX concentration after systemic infusion (LC/MS)",
  "assay_type": "in vivo, porcine",
  "conditions": "both systemic animals; end of systemic infusion",
  "procedure": "The systemic studies were denoted GMX001 and local administration studies GMX002.\nFor GMX001 (systemic), anatomy permitting, 2 animals were used and divided into a 3 hour animal and a 72 hour animal.\nFor GMX001, both animals underwent surgery to place two (2) CVL catheters, 1 for infusion and 1 for plasma collection. The animals were allowed to recover and stabilize.",
  "note": "The name of at least one read-out is uncertain.",
  "data": [
    {"compound": "CC(=O)O[C@H]1C(=O)[C@@]2(C)[C@H]([C@H](OC(=O)c3ccccc3)[C@]3(O)C[C@H](OC(=O)[C@H](O)[C@@H](NC(=O)c4ccccc4)c4ccccc4)C(C)=C1C3(C)C)[C@]1(OC(C)=O)CO[C@@H]1C[C@@H]2O", "note": "[PTX, 5β,20-Epoxy-1,2α,4,7β,10β,13α-hexahydroxytax-11-en-9-one 4,10-diacetate 2-benzoate 13-ester with (2R,3S)-N-benzoyl-3-phenylisoserine]", "values": [
      {"measurement": "time at which Cmax was reached", "value": "three"}
    ]}
  ]
}
